The values that follow come from PMC4278274.

Chains of the proteins cited; added tags and fusions are not shown.
UniProt O00560: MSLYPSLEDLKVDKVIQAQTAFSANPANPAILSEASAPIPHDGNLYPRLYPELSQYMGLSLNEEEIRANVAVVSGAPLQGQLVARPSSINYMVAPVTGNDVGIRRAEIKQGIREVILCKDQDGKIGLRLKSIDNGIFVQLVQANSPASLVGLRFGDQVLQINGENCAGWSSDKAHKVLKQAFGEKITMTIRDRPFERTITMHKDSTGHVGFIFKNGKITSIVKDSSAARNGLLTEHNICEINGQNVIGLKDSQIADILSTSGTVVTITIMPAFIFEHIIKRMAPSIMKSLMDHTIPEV
UniProt P35222: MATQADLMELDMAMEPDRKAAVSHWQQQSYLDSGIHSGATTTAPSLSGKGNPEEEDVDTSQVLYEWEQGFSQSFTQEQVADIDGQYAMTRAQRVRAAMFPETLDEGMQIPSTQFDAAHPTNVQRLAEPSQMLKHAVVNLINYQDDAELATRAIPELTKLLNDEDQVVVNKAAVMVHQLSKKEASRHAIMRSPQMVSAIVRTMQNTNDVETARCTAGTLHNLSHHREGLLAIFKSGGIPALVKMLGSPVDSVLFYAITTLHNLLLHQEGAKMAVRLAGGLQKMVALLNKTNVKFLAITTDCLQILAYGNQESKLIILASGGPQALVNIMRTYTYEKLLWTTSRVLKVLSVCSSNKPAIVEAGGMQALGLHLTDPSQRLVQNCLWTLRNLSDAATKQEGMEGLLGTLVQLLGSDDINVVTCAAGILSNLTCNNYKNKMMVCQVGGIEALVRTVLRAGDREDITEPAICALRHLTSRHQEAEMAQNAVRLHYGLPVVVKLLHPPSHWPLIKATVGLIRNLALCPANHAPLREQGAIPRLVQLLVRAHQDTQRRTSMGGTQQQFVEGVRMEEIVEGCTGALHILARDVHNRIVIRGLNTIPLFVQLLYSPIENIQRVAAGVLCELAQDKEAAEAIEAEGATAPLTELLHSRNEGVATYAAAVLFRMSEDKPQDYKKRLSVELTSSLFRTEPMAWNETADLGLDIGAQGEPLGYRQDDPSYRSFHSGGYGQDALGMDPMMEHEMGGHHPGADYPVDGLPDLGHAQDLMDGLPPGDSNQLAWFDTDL

In the test the target is MDA-9/Syntenin (human (endogenous in oral epithelial cell lines)) (UniProt O00560). The test is described as follows: co-IP; immunoprecipitation from whole cell lysates of oral epithelial cell lines, control immunoglobulin G, read by immunoblotting; protocol as in ref. 4. (In western blotting, separated proteins are transferred to a membrane and probed.)

No constants are given. Whether binding was seen depends on the method and setting. Binding seen in cells or lysates may run through a third protein. Some binding calls cover weakened binding; strength is not graded here.

For the substance CTNNB1 (from UniProt P35222 1-781), the binding result is recorded as “binds”.
